Source: the supplement of paper PMC11546906
Counter-ions that a name gives are not always drawn. Some of the results follow. This data set is noisy: repeats of one test often differ as much as different tests do.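 FDA-approved drugs were each paired with colistin at one-eighth its MIC and screened against a multidrug-resistant, mcr-1-positive clinical E. coli isolate, with OD600 read after 24 h. Drug-free bacteria served as growth control, plain broth as blank. Combinations were active if OD600 dropped below 0.2.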

Each compound was assayed on Escherichia coli 42 (mcr-1-positive clinical isolate) (assay: OD600 after 24 h growth with compound plus colistin (absorbance units (OD600)); higher = more bacterial growth (less inhibition)). Conditions: first compound 25 µM; colistin concentration 0.5 ug/mL; incubation time 24 h; 37 °C.
With `C#C[C@]1(OC(C)=O)CC[C@H]2[C@@H]3CCC4=C[C@@H](OC(C)=O)CC[C@@H]4[C@H]3CC[C@@]21C` [Ethynodiol diacetate] + CCC(C)CCCC(=O)N[C@@H](CCN)C(=O)N[C@H](C(=O)N[C@@H](CCN)C(=O)N[C@H]1CCNC(=O)[C@H]([C@@H](C)O)NC(=O)[C@H](CCN)NC(=O)[C@H](CCN)NC(=O)[C@H](CC(C)C)NC(=O)[C@@H](CC(C)C)NC(=O)[C@H](CCN)NC1=O)[C@@H](C)O [colistin] the OD600 was inactive: 0.906.
With `CC(=O)O[C@]1(C(C)=O)CC[C@H]2[C@@H]3CCC4=CC(=O)CCC4=C3[C@@H](c3ccc(N(C)C)cc3)C[C@@]21C` [Ulipristal acetate] + CCC(C)CCCC(=O)N[C@@H](CCN)C(=O)N[C@H](C(=O)N[C@@H](CCN)C(=O)N[C@H]1CCNC(=O)[C@H]([C@@H](C)O)NC(=O)[C@H](CCN)NC(=O)[C@H](CCN)NC(=O)[C@H](CC(C)C)NC(=O)[C@@H](CC(C)C)NC(=O)[C@H](CCN)NC1=O)[C@@H](C)O [colistin] the OD600 was inactive: 0.903.
`CC12CC3CC(C)(C1)CC(N)(C3)C2` [Memantine hydrochloride] + CCC(C)CCCC(=O)N[C@@H](CCN)C(=O)N[C@H](C(=O)N[C@@H](CCN)C(=O)N[C@H]1CCNC(=O)[C@H]([C@@H](C)O)NC(=O)[C@H](CCN)NC(=O)[C@H](CCN)NC(=O)[C@H](CC(C)C)NC(=O)[C@@H](CC(C)C)NC(=O)[C@H](CCN)NC1=O)[C@@H](C)O [colistin] was tested, and the OD600 was inactive: 0.939.
With `Cc1[nH]c2ccccc2c1CCNCc1ccc(/C=C/C(=O)NO)cc1` [Panobinostat] + CCC(C)CCCC(=O)N[C@@H](CCN)C(=O)N[C@H](C(=O)N[C@@H](CCN)C(=O)N[C@H]1CCNC(=O)[C@H]([C@@H](C)O)NC(=O)[C@H](CCN)NC(=O)[C@H](CCN)NC(=O)[C@H](CC(C)C)NC(=O)[C@@H](CC(C)C)NC(=O)[C@H](CCN)NC1=O)[C@@H](C)O [colistin] the OD600 was inactive: 1.11.
In the case of `COc1ccnc(C[S+]([O-])c2nc3cc(OC(F)F)ccc3[nH]2)c1OC` (centres undefined) [Pantoprazole sodium] + CCC(C)CCCC(=O)N[C@@H](CCN)C(=O)N[C@H](C(=O)N[C@@H](CCN)C(=O)N[C@H]1CCNC(=O)[C@H]([C@@H](C)O)NC(=O)[C@H](CCN)NC(=O)[C@H](CCN)NC(=O)[C@H](CC(C)C)NC(=O)[C@@H](CC(C)C)NC(=O)[C@H](CCN)NC1=O)[C@@H](C)O [colistin], the OD600 is reported as inactive: 1.05.
In the case of `CCC[C@H](N[C@@H](C)C(=O)N1[C@H](C(=O)O)C[C@@H]2CCCC[C@@H]21)C(=O)OCC` [Perindopril erbumine] + CCC(C)CCCC(=O)N[C@@H](CCN)C(=O)N[C@H](C(=O)N[C@@H](CCN)C(=O)N[C@H]1CCNC(=O)[C@H]([C@@H](C)O)NC(=O)[C@H](CCN)NC(=O)[C@H](CCN)NC(=O)[C@H](CC(C)C)NC(=O)[C@@H](CC(C)C)NC(=O)[C@H](CCN)NC1=O)[C@@H](C)O [colistin], the OD600 is reported as inactive: 1.02.
`CN(C/C=C/C#CC(C)(C)C)Cc1cccc2ccccc12` [Terbinafine hydrochloride] + CCC(C)CCCC(=O)N[C@@H](CCN)C(=O)N[C@H](C(=O)N[C@@H](CCN)C(=O)N[C@H]1CCNC(=O)[C@H]([C@@H](C)O)NC(=O)[C@H](CCN)NC(=O)[C@H](CCN)NC(=O)[C@H](CC(C)C)NC(=O)[C@@H](CC(C)C)NC(=O)[C@H](CCN)NC1=O)[C@@H](C)O [colistin] was tested, and the OD600 was inactive: 0.76.
`OC[C@@H](O)[C@@H](O)[C@H](O)[C@@H](O)CO` [D-Sorbitol] + CCC(C)CCCC(=O)N[C@@H](CCN)C(=O)N[C@H](C(=O)N[C@@H](CCN)C(=O)N[C@H]1CCNC(=O)[C@H]([C@@H](C)O)NC(=O)[C@H](CCN)NC(=O)[C@H](CCN)NC(=O)[C@H](CC(C)C)NC(=O)[C@@H](CC(C)C)NC(=O)[C@H](CCN)NC1=O)[C@@H](C)O [colistin] was tested, and the OD600 was inactive: 0.712.
In the case of `CC(=O)Oc1ccccc1C(=O)O` [Aspirin] + CCC(C)CCCC(=O)N[C@@H](CCN)C(=O)N[C@H](C(=O)N[C@@H](CCN)C(=O)N[C@H]1CCNC(=O)[C@H]([C@@H](C)O)NC(=O)[C@H](CCN)NC(=O)[C@H](CCN)NC(=O)[C@H](CC(C)C)NC(=O)[C@@H](CC(C)C)NC(=O)[C@H](CCN)NC1=O)[C@@H](C)O [colistin], the OD600 is reported as inactive: 1.02.
